According to publication PMC10468518:
Results are given in words; binding and its absence hold for the method and conditions named. Binding seen in cells or lysates may run through a third protein. Some entries that bind do so weakly or less than the wild type.

Chains of the proteins cited; added tags and fusions are not shown. Lines headed by an entry give the natural chain unless they say otherwise; changes in a name come on top. A line that says so, or that is headed by a name, gives the form on record, which may keep a tag or linker. Residues count along the entry.
Strep-mRunx2 wild-type (Q08775, residues 80-607): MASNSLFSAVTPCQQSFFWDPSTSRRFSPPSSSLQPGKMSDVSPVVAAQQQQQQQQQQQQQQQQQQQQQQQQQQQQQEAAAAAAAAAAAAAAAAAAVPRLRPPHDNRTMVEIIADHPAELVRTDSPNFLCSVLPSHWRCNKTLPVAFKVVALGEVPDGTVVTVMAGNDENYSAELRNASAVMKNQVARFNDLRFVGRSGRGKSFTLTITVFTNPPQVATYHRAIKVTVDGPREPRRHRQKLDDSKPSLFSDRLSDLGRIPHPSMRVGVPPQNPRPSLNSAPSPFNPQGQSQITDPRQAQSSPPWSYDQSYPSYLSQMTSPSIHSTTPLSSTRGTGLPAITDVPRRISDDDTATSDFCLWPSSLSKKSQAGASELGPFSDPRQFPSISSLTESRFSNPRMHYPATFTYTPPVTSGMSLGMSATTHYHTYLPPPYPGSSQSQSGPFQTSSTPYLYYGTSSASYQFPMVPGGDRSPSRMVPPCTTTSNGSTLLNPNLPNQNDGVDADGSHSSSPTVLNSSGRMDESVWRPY
Strep-mRunx2 R232K (Q08775, form named): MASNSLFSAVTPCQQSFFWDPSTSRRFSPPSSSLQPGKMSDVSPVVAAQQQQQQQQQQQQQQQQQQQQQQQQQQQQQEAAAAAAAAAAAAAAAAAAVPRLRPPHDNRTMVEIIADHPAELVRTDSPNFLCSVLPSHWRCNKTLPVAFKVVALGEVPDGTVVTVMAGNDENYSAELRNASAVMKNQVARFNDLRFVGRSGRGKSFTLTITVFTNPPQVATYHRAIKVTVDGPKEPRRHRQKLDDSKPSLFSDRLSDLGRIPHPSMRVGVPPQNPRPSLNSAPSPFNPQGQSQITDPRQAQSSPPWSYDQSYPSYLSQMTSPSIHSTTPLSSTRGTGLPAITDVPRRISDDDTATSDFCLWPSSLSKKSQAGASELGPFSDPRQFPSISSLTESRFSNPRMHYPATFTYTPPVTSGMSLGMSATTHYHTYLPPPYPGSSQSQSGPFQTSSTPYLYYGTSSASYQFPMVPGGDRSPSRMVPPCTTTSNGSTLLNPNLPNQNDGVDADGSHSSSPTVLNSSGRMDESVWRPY
Strep-mRunx2 R393K (Q08775, form named): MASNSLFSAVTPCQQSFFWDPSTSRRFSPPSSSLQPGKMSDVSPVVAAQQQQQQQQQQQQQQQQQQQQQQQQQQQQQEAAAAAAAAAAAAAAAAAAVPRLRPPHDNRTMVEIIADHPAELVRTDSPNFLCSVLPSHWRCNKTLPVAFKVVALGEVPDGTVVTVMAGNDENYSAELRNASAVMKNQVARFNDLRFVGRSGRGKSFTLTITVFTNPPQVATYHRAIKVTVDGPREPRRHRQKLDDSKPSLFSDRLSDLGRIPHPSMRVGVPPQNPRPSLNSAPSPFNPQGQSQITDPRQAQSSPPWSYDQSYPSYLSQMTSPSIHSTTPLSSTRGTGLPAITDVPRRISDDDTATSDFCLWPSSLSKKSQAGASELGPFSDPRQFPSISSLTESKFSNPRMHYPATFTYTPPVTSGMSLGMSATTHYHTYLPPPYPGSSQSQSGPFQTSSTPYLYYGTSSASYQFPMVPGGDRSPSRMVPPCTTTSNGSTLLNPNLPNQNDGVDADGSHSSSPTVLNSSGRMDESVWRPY
Strep-mRunx2 R197K (Q08775, form named): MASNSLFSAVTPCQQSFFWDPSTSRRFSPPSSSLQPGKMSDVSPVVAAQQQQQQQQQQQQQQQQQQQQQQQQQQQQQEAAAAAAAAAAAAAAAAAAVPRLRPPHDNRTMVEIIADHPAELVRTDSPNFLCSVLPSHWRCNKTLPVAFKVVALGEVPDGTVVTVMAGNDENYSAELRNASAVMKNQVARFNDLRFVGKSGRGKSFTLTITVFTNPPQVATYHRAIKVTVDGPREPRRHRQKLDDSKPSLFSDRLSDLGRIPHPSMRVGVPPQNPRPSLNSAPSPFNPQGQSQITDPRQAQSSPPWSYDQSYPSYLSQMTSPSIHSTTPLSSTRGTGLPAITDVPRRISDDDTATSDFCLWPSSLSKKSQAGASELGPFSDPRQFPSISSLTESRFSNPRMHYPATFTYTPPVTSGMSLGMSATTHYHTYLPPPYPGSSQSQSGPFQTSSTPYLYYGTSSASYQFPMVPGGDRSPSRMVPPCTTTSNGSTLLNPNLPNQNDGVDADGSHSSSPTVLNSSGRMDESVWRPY
Strep-mRunx2 R381K (Q08775, form named): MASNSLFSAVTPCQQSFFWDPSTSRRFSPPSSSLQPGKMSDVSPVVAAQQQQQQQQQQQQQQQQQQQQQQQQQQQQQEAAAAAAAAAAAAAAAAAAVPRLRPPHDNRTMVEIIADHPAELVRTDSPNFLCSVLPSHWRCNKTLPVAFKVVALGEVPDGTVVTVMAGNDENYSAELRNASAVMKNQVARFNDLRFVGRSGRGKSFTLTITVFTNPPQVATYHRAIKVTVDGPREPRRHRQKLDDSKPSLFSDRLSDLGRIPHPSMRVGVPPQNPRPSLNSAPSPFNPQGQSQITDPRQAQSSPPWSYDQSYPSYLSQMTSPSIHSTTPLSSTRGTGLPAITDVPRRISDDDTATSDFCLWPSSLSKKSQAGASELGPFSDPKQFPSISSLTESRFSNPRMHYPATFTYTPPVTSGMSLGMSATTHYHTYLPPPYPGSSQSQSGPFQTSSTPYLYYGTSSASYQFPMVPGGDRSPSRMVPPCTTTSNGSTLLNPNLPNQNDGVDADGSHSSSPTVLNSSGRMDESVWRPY
Strep-mRunx2 R26K (Q08775, form named): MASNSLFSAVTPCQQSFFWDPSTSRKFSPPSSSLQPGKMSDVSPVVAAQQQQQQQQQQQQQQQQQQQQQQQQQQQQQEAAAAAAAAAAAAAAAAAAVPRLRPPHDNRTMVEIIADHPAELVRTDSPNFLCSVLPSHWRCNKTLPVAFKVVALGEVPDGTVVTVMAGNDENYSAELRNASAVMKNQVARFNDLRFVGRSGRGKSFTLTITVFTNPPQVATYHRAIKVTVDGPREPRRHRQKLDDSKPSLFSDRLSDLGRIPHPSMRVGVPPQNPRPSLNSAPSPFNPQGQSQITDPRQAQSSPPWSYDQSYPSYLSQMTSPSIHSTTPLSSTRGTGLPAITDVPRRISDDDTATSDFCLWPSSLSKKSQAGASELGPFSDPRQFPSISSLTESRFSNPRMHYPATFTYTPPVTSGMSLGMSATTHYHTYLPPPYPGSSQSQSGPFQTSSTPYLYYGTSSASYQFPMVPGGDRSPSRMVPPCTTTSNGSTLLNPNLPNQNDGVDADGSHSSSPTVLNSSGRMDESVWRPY
Strep-mRunx2 R236K (Q08775, form named): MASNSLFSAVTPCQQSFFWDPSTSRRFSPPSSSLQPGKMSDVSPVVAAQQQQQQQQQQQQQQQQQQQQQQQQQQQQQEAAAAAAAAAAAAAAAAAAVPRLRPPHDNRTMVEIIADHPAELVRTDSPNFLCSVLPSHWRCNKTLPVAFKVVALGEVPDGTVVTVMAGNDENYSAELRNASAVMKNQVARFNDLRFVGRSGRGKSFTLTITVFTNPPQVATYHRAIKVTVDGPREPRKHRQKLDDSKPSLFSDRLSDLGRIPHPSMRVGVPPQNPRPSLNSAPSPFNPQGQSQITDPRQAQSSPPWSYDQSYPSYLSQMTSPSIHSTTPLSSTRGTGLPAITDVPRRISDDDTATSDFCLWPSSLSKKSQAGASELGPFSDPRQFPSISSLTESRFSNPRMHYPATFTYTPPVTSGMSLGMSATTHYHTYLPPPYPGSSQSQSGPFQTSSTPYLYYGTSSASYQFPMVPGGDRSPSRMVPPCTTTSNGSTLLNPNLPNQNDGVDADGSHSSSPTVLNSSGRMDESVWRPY
Strep-mRunx2 R193K (Q08775, form named): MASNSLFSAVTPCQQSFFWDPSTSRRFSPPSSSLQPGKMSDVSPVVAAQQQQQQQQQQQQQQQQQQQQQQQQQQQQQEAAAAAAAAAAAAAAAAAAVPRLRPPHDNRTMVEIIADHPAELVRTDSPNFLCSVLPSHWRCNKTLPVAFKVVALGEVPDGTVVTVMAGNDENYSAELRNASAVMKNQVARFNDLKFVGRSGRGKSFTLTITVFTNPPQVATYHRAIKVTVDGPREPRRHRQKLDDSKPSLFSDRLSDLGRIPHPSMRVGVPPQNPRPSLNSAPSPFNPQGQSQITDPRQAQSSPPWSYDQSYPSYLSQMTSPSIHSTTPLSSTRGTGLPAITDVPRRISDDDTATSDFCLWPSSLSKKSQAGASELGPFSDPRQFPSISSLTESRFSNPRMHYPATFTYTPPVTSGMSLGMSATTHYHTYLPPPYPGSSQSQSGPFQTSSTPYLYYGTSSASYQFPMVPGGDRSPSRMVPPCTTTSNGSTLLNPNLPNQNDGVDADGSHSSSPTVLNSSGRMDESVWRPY
Strep-mRunx2 R235K (Q08775, form named): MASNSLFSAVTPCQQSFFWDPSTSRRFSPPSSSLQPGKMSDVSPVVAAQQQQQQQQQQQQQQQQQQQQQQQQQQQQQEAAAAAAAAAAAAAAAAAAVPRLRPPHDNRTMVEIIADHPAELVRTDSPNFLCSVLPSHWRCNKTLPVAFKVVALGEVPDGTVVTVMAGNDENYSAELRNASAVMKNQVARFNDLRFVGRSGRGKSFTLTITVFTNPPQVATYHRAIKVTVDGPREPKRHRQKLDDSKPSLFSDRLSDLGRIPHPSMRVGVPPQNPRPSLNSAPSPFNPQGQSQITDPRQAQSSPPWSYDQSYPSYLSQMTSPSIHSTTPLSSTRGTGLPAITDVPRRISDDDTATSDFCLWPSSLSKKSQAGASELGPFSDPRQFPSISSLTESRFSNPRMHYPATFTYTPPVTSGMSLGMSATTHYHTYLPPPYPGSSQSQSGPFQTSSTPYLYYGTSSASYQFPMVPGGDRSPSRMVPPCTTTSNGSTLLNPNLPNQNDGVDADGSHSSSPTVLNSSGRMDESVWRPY
Strep-mRunx2 R25K (Q08775, form named): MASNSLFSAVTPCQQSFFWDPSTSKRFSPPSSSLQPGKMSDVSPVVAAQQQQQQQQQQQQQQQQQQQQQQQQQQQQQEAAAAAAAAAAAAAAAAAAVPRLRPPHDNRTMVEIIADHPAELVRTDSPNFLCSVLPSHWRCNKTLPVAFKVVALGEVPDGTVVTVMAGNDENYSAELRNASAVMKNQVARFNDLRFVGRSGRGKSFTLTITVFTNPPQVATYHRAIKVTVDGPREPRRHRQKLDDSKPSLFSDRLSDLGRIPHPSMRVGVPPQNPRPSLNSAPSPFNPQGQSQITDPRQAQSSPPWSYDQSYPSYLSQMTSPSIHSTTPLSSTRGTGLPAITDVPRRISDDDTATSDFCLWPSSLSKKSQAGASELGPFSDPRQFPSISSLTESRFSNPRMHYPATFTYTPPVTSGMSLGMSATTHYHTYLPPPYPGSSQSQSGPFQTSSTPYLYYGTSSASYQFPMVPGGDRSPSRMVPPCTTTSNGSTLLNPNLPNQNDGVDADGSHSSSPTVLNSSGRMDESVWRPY
Strep-mRunx2 R188K (Q08775, form named): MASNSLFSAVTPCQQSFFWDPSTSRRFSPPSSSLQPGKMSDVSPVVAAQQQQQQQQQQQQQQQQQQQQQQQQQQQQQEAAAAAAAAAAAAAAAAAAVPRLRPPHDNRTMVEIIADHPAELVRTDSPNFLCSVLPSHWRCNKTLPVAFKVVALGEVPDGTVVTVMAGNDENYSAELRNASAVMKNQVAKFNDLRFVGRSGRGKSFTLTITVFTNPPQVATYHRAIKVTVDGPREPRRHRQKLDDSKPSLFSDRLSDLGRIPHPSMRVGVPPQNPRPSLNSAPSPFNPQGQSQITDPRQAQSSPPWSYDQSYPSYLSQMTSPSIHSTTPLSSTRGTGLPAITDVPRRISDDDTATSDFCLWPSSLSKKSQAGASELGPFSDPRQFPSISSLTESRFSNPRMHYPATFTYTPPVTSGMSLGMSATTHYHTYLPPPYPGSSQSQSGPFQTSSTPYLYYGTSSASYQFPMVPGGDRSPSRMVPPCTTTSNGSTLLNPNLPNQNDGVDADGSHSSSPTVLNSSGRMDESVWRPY
UniProt Q08024: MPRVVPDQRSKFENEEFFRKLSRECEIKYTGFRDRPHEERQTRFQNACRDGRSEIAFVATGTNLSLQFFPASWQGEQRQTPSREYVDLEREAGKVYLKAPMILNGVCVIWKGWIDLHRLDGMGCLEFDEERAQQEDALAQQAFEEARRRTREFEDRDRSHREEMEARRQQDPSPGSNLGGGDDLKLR

Key:
Test in all cases: co-IP; 293T cells transfected with Strep-Runx2 Wt or R-to-K mutants with or without Myc-Cbfβ, 3 days; lysate incubated with MagStrep type3 XT (Strep-Tag II) magnetic beads overnight at 4 °C; washed four times with IP lysis buffer (25 mM Tris-HCl pH 7.4, 150 mM NaCl, 1% NP-40, 1 mM EDTA, 5% glycerol); immunoblot; Strep-RUNX2 expression levels adjusted to be similar
[1] = molecular target: Strep-mRunx2 R232K (mouse) (UniProt Q08775)
[2] = molecular target: Strep-mRunx2 R393K (mouse) (UniProt Q08775)
[3] = molecular target: Strep-mRunx2 R197K (mouse) (UniProt Q08775)
[4] = molecular target: Strep-mRunx2 R381K (mouse) (UniProt Q08775)
[5] = molecular target: Strep-mRunx2 R26K (mouse) (UniProt Q08775)
[6] = molecular target: Strep-mRunx2 R236K (mouse) (UniProt Q08775)
[7] = molecular target: Strep-mRunx2 wild-type (mouse) (UniProt Q08775)
[8] = molecular target: Strep-mRunx2 R193K (mouse) (UniProt Q08775)
[9] = molecular target: Strep-mRunx2 R235K (mouse) (UniProt Q08775)
[10] = molecular target: Strep-mRunx2 R25K (mouse) (UniProt Q08775)
[11] = molecular target: Strep-mRunx2 R188K (mouse) (UniProt Q08775)

binding [1]: binds
binding [2]: binds
binding [3]: binds
binding [4]: binds
binding [5]: binds
binding [6]: binds
binding [7]: binds
binding [8]: binds
binding [9]: binds
binding [10]: binds
binding [11]: binds
Substance: Myc-Cbfβ (from UniProt Q08024 1-187)
